Here are results for one molecule from paper PMC10203668.

These are yes or no findings as the source states them, for the method shown. In cells and extracts the contact can be indirect. Some results given as binding are weak or reduced against the parent protein; the word gives no strength.

In the test the target is T1, Heat-Shock Factor 1 (HSF1), Q00613.
T1 chain: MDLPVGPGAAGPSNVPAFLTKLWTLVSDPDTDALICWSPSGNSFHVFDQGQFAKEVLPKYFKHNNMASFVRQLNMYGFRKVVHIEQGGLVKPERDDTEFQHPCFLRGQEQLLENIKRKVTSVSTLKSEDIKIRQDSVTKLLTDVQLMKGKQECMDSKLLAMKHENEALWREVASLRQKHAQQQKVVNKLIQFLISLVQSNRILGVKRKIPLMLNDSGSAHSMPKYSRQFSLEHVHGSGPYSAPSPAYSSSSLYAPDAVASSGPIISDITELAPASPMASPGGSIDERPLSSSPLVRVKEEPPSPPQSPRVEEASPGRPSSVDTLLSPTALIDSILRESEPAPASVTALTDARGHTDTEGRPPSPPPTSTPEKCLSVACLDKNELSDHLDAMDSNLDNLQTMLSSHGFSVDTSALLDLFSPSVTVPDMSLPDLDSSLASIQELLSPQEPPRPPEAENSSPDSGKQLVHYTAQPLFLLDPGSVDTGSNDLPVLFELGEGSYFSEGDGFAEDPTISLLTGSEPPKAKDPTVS
As to the kind of experiment: FRET or BRET; intermolecular BRET in live cells co-expressing nLuc-HSF1 (donor) and mNeonG-HSF1 (acceptor) with HSP90 vector; 37 °C; 5 µM Coelenterazine H; MG132 for 18 h; sham or 5G-modulated 3.5 GHz RF-EMF exposure for 24 h. The conditions noted are these: remark: other sources report otherwise. A general note: BRET reads energy transfer from a luciferase to a nearby fluorophore.

B1: Heat-Shock Factor 1 (HSF1), Q00613 1-529 (protein)
chain: MDLPVGPGAAGPSNVPAFLTKLWTLVSDPDTDALICWSPSGNSFHVFDQGQFAKEVLPKYFKHNNMASFVRQLNMYGFRKVVHIEQGGLVKPERDDTEFQHPCFLRGQEQLLENIKRKVTSVSTLKSEDIKIRQDSVTKLLTDVQLMKGKQECMDSKLLAMKHENEALWREVASLRQKHAQQQKVVNKLIQFLISLVQSNRILGVKRKIPLMLNDSGSAHSMPKYSRQFSLEHVHGSGPYSAPSPAYSSSSLYAPDAVASSGPIISDITELAPASPMASPGGSIDERPLSSSPLVRVKEEPPSPPQSPRVEEASPGRPSSVDTLLSPTALIDSILRESEPAPASVTALTDARGHTDTEGRPPSPPPTSTPEKCLSVACLDKNELSDHLDAMDSNLDNLQTMLSSHGFSVDTSALLDLFSPSVTVPDMSLPDLDSSLASIQELLSPQEPPRPPEAENSSPDSGKQLVHYTAQPLFLLDPGSVDTGSNDLPVLFELGEGSYFSEGDGFAEDPTISLLTGSEPPKAKDPTVS
On to B1, for which the binding result is given as “binds”.
